Laboratory results taken from the supplement of paper PMC10849652.
The list shows a part of the results.

Chains of the proteins cited; added tags and fusions are not shown. Lines headed by an entry give the natural chain unless they say otherwise; changes in a name come on top.
UniProt Q9UNS2: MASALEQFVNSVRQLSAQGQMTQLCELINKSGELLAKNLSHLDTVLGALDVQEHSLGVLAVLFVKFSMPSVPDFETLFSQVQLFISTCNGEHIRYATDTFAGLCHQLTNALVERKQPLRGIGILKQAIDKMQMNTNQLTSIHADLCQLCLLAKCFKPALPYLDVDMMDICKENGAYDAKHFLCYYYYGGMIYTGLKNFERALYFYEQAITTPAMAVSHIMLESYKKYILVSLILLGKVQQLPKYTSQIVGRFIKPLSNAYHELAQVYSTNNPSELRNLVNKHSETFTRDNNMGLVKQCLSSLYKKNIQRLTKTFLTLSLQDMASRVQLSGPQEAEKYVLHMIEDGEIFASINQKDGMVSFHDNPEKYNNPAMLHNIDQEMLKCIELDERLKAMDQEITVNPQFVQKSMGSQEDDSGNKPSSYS
UniProt P14406, whole entry, looked up: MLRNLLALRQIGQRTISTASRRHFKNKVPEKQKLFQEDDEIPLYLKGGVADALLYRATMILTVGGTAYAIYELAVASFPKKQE
UniProt Q9UIV1, whole entry, looked up: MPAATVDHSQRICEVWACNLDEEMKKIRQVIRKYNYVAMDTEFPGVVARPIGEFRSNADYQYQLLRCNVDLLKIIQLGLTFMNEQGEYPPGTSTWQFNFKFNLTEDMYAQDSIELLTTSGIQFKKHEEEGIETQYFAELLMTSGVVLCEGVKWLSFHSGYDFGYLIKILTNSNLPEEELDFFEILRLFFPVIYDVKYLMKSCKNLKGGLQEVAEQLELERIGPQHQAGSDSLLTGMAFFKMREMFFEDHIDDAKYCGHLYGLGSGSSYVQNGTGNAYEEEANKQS
UniProt O75175, whole entry, looked up: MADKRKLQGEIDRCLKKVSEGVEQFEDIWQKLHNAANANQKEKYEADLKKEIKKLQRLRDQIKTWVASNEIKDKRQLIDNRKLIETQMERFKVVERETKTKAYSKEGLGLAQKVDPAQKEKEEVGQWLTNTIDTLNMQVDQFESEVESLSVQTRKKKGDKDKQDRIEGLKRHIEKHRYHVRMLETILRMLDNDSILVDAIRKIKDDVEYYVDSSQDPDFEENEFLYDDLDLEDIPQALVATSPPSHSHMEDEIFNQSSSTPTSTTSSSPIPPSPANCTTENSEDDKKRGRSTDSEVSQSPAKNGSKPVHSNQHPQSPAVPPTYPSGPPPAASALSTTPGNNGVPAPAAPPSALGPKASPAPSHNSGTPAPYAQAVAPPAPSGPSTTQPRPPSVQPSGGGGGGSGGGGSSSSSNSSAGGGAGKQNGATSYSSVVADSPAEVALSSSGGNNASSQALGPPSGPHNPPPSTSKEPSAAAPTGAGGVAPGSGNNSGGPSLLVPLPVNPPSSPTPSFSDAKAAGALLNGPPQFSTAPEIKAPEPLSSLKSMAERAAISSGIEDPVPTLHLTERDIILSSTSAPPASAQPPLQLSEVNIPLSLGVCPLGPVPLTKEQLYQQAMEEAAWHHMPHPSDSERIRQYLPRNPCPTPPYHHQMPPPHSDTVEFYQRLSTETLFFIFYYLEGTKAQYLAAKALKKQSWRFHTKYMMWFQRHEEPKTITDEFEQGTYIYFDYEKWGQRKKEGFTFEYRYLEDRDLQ
UniProt Q9NQ92: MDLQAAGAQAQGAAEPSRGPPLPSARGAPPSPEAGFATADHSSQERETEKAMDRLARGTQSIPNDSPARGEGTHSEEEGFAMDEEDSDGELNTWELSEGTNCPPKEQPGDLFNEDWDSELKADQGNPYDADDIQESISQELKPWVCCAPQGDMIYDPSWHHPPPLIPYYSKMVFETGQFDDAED
UniProt Q99807: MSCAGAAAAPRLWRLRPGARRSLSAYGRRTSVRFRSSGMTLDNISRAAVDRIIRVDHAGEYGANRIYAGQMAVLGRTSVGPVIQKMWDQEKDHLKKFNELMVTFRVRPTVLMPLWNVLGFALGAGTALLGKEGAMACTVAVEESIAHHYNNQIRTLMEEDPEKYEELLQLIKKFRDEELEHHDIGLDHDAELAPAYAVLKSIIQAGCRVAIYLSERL
UniProt Q14019: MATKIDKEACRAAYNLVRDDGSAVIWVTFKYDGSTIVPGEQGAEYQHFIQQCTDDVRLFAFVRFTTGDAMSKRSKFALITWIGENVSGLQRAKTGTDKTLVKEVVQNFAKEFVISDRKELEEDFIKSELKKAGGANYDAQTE
UniProt Q9Y6N1: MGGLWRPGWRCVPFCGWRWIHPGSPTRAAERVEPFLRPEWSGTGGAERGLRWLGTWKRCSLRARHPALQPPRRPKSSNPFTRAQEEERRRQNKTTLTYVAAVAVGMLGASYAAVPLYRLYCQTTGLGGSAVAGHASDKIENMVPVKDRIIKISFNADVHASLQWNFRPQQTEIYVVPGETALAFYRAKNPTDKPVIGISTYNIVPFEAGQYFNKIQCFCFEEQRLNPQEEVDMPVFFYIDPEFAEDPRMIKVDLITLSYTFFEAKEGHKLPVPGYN
UniProt Q86VU5: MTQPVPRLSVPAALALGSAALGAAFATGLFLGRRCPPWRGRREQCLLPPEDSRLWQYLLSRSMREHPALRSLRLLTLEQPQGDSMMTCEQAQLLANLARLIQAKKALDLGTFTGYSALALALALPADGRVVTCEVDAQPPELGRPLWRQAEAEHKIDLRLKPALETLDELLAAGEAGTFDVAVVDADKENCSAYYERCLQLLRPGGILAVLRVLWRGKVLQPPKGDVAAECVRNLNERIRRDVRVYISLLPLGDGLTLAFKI
UniProt Q9Y2B0: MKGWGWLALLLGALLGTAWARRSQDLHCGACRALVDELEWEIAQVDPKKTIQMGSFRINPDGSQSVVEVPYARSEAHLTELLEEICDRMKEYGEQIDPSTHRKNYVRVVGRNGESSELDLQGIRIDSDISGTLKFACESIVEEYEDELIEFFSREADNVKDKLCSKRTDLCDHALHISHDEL
UniProt Q6PJW8: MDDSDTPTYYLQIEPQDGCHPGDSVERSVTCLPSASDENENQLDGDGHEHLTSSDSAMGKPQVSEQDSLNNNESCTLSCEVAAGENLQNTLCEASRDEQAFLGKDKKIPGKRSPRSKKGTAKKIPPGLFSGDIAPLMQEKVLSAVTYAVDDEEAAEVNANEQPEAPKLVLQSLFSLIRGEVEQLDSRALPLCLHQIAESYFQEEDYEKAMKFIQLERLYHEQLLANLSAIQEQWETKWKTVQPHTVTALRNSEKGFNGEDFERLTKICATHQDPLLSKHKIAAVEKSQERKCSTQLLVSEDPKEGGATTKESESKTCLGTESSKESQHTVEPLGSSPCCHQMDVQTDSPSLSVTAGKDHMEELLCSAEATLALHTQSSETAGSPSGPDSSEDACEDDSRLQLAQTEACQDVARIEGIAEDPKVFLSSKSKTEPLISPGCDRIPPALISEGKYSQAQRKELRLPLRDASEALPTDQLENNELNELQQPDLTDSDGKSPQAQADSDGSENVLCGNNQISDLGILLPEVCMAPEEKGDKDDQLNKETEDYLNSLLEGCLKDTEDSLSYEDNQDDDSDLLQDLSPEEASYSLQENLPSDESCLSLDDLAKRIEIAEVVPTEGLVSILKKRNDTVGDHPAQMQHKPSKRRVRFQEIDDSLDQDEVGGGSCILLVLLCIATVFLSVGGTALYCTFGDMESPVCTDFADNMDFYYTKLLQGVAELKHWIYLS
UniProt Q8IWV2: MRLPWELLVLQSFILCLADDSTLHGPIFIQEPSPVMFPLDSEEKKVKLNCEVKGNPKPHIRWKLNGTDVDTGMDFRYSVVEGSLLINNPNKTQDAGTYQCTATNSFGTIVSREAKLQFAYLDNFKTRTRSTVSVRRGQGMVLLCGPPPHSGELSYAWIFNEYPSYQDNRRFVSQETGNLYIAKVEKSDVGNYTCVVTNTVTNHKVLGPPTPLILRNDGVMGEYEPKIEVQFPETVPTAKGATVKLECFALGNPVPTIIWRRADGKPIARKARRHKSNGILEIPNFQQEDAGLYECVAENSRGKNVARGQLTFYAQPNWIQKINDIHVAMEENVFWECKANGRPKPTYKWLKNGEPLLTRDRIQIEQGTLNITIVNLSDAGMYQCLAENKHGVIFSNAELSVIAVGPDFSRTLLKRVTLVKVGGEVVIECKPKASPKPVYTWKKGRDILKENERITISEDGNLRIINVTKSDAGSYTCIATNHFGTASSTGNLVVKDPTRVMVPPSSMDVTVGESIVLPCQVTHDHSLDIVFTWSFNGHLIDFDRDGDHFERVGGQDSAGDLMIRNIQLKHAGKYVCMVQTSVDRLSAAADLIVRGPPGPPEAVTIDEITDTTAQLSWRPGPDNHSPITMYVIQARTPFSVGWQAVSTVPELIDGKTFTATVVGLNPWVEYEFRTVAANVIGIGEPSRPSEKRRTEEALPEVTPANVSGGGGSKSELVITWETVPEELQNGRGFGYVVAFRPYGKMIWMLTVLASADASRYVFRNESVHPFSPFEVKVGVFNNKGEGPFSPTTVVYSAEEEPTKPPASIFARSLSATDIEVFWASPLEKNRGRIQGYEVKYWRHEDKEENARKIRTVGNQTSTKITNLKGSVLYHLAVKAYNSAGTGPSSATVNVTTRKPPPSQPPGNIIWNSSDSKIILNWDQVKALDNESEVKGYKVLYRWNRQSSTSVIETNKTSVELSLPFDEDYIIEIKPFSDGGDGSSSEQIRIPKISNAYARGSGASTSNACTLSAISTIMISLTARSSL
UniProt P13073, whole entry, looked up: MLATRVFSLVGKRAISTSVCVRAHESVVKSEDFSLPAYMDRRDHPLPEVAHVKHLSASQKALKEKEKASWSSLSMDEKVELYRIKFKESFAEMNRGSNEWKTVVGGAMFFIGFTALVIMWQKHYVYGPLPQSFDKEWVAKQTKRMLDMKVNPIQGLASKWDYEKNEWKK
UniProt O95639, whole entry, looked up: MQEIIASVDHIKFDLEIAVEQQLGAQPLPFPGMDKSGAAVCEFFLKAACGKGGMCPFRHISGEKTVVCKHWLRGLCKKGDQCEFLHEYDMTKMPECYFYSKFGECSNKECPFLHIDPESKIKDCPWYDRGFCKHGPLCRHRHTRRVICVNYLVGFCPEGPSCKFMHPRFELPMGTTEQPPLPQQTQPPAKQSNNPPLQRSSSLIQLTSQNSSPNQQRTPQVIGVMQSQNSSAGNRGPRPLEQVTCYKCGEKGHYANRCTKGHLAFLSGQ
UniProt Q9Y6G5, whole entry, looked up: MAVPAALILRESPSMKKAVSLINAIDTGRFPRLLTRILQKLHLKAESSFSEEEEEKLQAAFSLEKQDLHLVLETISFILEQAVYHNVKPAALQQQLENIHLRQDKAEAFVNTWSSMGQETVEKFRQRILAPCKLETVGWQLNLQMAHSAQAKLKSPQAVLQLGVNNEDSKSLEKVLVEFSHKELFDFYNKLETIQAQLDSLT
UniProt O75976: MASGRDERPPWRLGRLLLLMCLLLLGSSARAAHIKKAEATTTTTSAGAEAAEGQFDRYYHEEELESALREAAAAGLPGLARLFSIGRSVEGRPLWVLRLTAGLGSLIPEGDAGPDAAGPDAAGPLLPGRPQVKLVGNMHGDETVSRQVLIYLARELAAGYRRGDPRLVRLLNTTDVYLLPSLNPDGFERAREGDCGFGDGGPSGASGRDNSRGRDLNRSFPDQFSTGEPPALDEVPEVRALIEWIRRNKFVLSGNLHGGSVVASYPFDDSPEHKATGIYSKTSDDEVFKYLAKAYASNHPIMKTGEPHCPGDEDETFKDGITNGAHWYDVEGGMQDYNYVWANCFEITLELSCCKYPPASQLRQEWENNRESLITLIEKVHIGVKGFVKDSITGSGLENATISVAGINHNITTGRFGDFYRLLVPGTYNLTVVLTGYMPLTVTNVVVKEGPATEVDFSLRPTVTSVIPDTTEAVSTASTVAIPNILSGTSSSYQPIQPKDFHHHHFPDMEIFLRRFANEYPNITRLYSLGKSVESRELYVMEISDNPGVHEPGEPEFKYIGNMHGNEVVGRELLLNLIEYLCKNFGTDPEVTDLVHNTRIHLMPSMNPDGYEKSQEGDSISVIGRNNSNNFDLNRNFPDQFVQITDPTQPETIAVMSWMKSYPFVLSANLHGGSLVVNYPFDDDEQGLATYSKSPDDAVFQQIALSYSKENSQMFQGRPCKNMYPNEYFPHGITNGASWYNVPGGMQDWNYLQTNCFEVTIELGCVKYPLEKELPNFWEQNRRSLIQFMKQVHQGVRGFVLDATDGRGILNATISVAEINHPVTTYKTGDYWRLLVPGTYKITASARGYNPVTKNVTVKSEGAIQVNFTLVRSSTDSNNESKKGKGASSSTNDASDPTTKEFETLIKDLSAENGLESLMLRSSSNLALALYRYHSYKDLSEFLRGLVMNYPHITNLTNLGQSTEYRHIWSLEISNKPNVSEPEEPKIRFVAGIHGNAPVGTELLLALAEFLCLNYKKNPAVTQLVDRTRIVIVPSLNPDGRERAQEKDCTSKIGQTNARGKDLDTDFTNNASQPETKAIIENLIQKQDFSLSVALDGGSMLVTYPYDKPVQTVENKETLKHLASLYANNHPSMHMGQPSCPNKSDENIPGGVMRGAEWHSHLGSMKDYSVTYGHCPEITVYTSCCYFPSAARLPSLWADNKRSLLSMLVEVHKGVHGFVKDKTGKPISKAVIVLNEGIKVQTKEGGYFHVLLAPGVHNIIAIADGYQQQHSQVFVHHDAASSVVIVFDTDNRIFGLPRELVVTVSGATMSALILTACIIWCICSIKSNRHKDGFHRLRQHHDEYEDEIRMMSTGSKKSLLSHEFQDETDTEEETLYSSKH

compound: CC(C)(C)Cn1c(N)nc2ccc(-c3[nH]c(C(C)(C)C)nc3-c3ccc(F)cc3)nc21 [ralimetinib]; test: log2 fold change, soluble protein after heating vs DMSO (PISA); higher = thermal stabilisation; K562 lysate, 10 uM; active = over 0.2 and 3.5 SD of the protein, either way, in both replicates (recomputed)
How it was run: (§1)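 Quantification was by TMTpro 16plex LC-MS/MS with equalised channel sums, applied to the supernatant after 21,000xg for 90 min. Samples were crude K562 extract at 1 mg/mL protein in PBS pH 7.4 with 1 mM MgCl2, treated with 10 μM compound for 30 min, heated for 3 min across 48°C-58°C, pooled and brought to 0.5% NP-40 at 4°C. Values are log-two fold changes in thermal stability relative to solvent controls, from duplicates.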

log2 fold change, inactive:
CNOT10 (UniProt Q9H9A5) 0.012
COPA isoform 2 (UniProt P53621) 0.011
COPS3 (UniProt Q9UNS2) -0.018
COX7A2 (UniProt P14406) 0.016
CNOT6 (UniProt Q9ULM6) 0.057
CNOT7 (UniProt Q9UIV1) 0.007
CNOT3 (UniProt O75175) 0.036
COX5A (UniProt P20674) -0.007
COPRS (UniProt Q9NQ92) 0.076
COQ7 (UniProt Q99807) 0.011
COTL1 (UniProt Q14019) -0.025
COX11 (UniProt Q9Y6N1) -0.055
CRADD (UniProt P78560) 0.012
COMMD1 (UniProt Q8N668) 0.018
CNOT1 (UniProt A5YKK6) 0.014
CPSF7 isoform 3 (UniProt Q8N684) 0.001
COMTD1 (UniProt Q86VU5) -0.06
COX18 (UniProt Q8N8Q8) 0.058
COX19 (UniProt Q49B96) 0.009
COPZ1 isoform 4 (UniProt P61923) 0
CPSF1 (UniProt Q10570) -0.011
CNPY2 (UniProt Q9Y2B0) 0.01
CNST (UniProt Q6PJW8) 0.031
COA1 (UniProt Q9GZY4) 0.005
COPS7B (UniProt Q9H9Q2) -0.011
COQ3 (UniProt Q9NZJ6) -0.037
CNTN4 (UniProt Q8IWV2) -0.286
COX4I1 (UniProt P13073) 0.028
CPPED1 (UniProt Q9BRF8) 0.014
COPS4 (UniProt Q9BT78) 0.015
CPSF4 (UniProt O95639) -0.015
COMMD10 (UniProt Q9Y6G5) 0.021
CPD (UniProt O75976) -0.028
CORO1C isoform 3 (UniProt Q9ULV4) -0.011
CNOT4 isoform 6 (UniProt O95628) 0.033
COMMD9 (UniProt Q9P000) 0.024
COL18A1 (UniProt P39060) -0.043
CPEB4 (UniProt Q17RY0) 0.121
COX15 (UniProt Q7KZN9) -0.036
COX6A1 (UniProt P12074) -0.002

compound: CC(C)(O)CC(=O)NCCn1ccc2ncnc(Nc3ccc(Oc4cccc(C(F)(F)F)c4)c(Cl)c3)c21; test: as above
How it was run: as §1

log2 fold change, inactive:
CNOT10 (UniProt Q9H9A5) -0.046
COPA isoform 2 (UniProt P53621) -0.01
COPS3 (UniProt Q9UNS2) -0.026
COX7A2 (UniProt P14406) -0.075
CNOT6 (UniProt Q9ULM6) -0.027
CNOT7 (UniProt Q9UIV1) -0.021
CNOT3 (UniProt O75175) 0.021
COX5A (UniProt P20674) 0.002
COPRS (UniProt Q9NQ92) -0.006
COQ7 (UniProt Q99807) -0.059
COTL1 (UniProt Q14019) 0.049
COX11 (UniProt Q9Y6N1) 0.373
CRADD (UniProt P78560) -0.093
COMMD1 (UniProt Q8N668) -0.05
CNOT1 (UniProt A5YKK6) -0.013
CPSF7 isoform 3 (UniProt Q8N684) 0.014
COMTD1 (UniProt Q86VU5) -0.088
COX18 (UniProt Q8N8Q8) -0.035
COX19 (UniProt Q49B96) -0.041
COPZ1 isoform 4 (UniProt P61923) 0.013
CPSF1 (UniProt Q10570) -0.013
CNPY2 (UniProt Q9Y2B0) 0.022
CNST (UniProt Q6PJW8) 0.022
COA1 (UniProt Q9GZY4) -0.049
COPS7B (UniProt Q9H9Q2) 0.066
COQ3 (UniProt Q9NZJ6) 0.06
CNTN4 (UniProt Q8IWV2) -0.341
COX4I1 (UniProt P13073) -0.015
CPPED1 (UniProt Q9BRF8) -0.04
COPS4 (UniProt Q9BT78) 0.015
CPSF4 (UniProt O95639) -0.048
COMMD10 (UniProt Q9Y6G5) 0.014
CPD (UniProt O75976) -0.052
CORO1C isoform 3 (UniProt Q9ULV4) 0
CNOT4 isoform 6 (UniProt O95628) -0.007
COMMD9 (UniProt Q9P000) -0.054
COL18A1 (UniProt P39060) 0.04
CPEB4 (UniProt Q17RY0) 0.16
COX15 (UniProt Q7KZN9) -0.091
COX6A1 (UniProt P12074) -0.004
